Measurements taken from paper PMC10698284.
Results are given in words; binding and its absence hold for the method and conditions named. In cells and extracts the contact can be indirect. Some entries that bind do so weakly or less than the wild type.

The chains behind the UniProt entries cited, without tags or fusion partners. Where a name states a change or a piece, a line headed by the entry shows the natural chain unless it says otherwise. A line that says so, or that is headed by a name, gives the form on record, which may keep a tag or linker. Residues count along the entry.
FLAG-SLC3A2 WTseq (P08195, residues 66-630): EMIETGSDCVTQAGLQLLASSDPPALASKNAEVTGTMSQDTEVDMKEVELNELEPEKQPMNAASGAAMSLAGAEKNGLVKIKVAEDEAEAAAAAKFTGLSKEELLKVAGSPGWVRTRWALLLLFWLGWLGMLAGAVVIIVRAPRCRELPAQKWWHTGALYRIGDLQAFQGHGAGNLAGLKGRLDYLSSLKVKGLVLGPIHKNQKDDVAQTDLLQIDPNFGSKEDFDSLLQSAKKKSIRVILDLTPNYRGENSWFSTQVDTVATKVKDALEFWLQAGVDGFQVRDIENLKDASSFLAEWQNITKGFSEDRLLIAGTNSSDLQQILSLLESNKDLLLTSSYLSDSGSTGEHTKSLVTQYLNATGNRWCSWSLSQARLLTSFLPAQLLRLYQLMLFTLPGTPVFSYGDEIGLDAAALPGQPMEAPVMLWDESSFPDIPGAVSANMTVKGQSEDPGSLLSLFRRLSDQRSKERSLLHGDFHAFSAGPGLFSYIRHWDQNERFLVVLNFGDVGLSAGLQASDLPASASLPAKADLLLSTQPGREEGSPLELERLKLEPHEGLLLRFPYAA
FLAG-SLC3A2 N365D (P08195, form named): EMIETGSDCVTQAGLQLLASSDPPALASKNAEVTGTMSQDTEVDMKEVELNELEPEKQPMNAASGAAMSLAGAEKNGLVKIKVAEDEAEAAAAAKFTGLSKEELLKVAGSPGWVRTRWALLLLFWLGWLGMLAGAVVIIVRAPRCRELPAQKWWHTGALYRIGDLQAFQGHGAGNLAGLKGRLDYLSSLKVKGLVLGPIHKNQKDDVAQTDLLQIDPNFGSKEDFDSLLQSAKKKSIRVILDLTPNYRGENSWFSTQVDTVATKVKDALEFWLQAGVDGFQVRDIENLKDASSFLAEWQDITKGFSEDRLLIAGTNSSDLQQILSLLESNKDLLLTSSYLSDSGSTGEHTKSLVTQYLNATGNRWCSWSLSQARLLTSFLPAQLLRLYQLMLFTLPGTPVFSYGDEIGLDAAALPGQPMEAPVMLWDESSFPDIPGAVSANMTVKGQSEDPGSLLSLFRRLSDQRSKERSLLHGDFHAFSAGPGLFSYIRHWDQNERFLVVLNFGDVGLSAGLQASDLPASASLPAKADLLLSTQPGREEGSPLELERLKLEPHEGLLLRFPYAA
FLAG-SLC3A2 N381D (P08195, form named): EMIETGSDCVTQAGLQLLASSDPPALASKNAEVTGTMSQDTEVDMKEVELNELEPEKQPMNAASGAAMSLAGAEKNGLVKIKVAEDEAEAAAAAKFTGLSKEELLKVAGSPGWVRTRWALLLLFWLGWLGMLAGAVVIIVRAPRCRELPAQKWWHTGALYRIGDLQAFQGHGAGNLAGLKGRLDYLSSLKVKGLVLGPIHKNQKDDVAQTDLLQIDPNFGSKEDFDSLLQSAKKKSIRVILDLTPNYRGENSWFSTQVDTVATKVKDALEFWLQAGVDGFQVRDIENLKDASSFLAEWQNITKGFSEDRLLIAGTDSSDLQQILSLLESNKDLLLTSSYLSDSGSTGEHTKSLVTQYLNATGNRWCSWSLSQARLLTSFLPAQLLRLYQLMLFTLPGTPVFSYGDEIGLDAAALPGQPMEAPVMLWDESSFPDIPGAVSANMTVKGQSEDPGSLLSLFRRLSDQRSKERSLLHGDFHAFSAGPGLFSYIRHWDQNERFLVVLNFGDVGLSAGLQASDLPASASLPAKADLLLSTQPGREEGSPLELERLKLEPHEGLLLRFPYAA
UniProt P17931: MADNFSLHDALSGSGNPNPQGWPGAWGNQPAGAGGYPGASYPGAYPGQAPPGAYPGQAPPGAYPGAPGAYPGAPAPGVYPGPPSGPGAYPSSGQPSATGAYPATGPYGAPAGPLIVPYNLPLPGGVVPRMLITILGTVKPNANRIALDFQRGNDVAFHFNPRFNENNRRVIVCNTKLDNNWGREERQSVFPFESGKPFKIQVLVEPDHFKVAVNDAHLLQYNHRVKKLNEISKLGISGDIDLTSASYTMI

How the values were obtained:
Assay in all cases: co-IP; 5 μg/ml Gal3-488 bound 30 min at 4 °C to cells expressing FLAG-SLC3A2 WTseq or variants, washed, then 10 μg/ml anti-SLC3A2 (MEM-108) 30 min at 4 °C; cells lysed, cleared lysate overnight at 4 °C with protein G-sepharose; SDS-PAGE, co-pulled down Gal3 quantified; only the binder purified
[1] = biological target: FLAG-SLC3A2 N365D (human) (UniProt P08195)
[2] = biological target: FLAG-SLC3A2 N381D (human) (UniProt P08195)
[3] = biological target: FLAG-SLC3A2 WTseq (human) (UniProt P08195)

Measured: binding

Gal3-488 recombinant protein (from UniProt P17931 1-250)
binds: [1] | [2] | [3]
